This is an account of results in patent US10487091B2, “Activators of autophagic flux and phospholipase D and clearance of protein aggregates including tau and treatment of proteinopathies” (THE TRUSTEES OF COLUMBIA UNIVERSITY IN THE CITY OF NEW YORK, priority 2015, dated 2019).

Molecules are shown by their SMILES.

In this data set the test system is mKate2 tagged Tau. Nature of the data set: Tau-mKate2 fluorescence EC50. To be noted: therapeutic index, ratio LC50:EC50, upper limit 200 mM. The format is cell-based, Human. The method, then:
1) HEK cells with tet-regulated expression of mKate2 tagged Tau were grown in DMEM medium (Dulbecco's Modified Eagle's Medium) containing 0.5 μg/mL doxycycline (Dox)(MP-Bio#198955), after 3-5 days Dox was removed by washing the cells twice with sterile phosphate buffered saline (PBS; Invitrogen#14190-144), cells were left in DMEM without Dox for 72 hours (to further clear remaining Dox in cells).
The test compounds (along with CytoID™ dye and Hoechst stain) were added to the cells and incubated for 3 hours. Reference compounds were also used in each plate, Rapamycin was used for autophagy induction and chloroquine was used for lysosomal inhibition. […] Cells were then washed and read using a fluorescence plate reader. Hoescht, Cyto-ID™ and mKate2 were measured using 3 distinct wavelengths on the plate reader. […] After reading, test compound was re-added and the cells are left for a further 21 hours. At the 24 hour time point cells were once again washed and plates read using the fluorescence plate reader.
5) Treatment plate was then washed quickly 3 times with warm FB-DMEM (100 μL/well). […] At this point, the plate was ready for reading. See details in Reading Plate section. Hoescht was read at Excitation wavelength (Ex)=355 nm & Emission wavelength (Em)=446 nm. mKate2 was read at Ex=575 nm & Em=630 nm. Cyto-ID™ was read at Ex=463 nm & Em=534 nm. […]

For the molecule `c1cnc2c(SC3CCCC3)ncnc2c1` [WHYKD36], the TI-mKate2 turned out to be 64.

With `Ic1ccc2ncnc(SC3CCCC3)c2c1` [WHYKD30], the TI-mKate2 came to 180.
